One may read the AC50 as the concentration at which the activity in the assay is half-maximal.

This is an account of results in PubChem BioAssay AID493014 (National Center for Advancing Translational Sciences (NCATS), 2011).

The nature of this assay: qHTS Assay to Find Inhibitors of Chronic Active B-Cell Receptor Signaling. The following applies: ABC-DLBCL IkBa-CBG/CBR reporter, luminescence ratio (green luciferase fused to IkBa over red control in TMD8 lymphoma cells), 4 h. The procedure, abridged:
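Cell line TMD8 (human ABC DLBCL), stably expressing tet-inducible CBG68-IkBa fusion and CBR; IMDM/0.5% FBS; cpd up to 46 uM; dox induction, 4 h, 37C/5% CO2; dual luminescence; green/red ratio; MG132 control.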

The mark [1] stands for this setting: measured here: CBR red luminescence, cell number.
Where [2] appears, read: measured here: IkBa-CBG green luminescence.

The structures appear in SMILES notation. The list shows a part of the results. Shown are side measurements of this screen, not its main read-out; they come without a call. Most of these compounds were active or inconclusive in the main read-out, so they are no random draw. Potencies come from curve fits of mixed quality, noted in brackets.

On to `Cc1ccc2nc(SCC(=O)Nc3cccc(S(=O)(=O)NC4=NCCCCC4)c3)[nH]c2c1`, for which, under setting [1], the AC50 is 8.91 µM [falling, partial curve].

Turning to `CC(C)c1nc2sc3c(=S)nc[nH]c3c2c2c1CCC2`, the AC50 under setting [1] is 8.91 µM [rising, partial curve, poor fit].

As to `COc1cccc(-c2nc(CC(=O)O)cs2)c1OC`, the half-maximal activity concentration (AC50) under setting [1] was 20.6 µM [rising, single point].

As to `C=CCc1cccc(C=Nc2cccn3cc(-c4ccccc4)nc23)c1O`, under setting [1], the AC50 is 25.1 µM [falling, single point].

On to `Cc1ccc2cc3c(N)c(C(=O)N4CC(=O)Nc5ccccc54)sc3nc2c1`, for which the AC50 was 0.447 µM [rising, full curve, poor fit] under setting [1] and 0.447 µM [falling, full curve, poor fit] under setting [2].

Regarding `O=c1cc(N2CCc3ccccc32)[nH]c(=O)n1-c1ccc(Br)cc1`, the AC50 under setting [1] is 20.6 µM [falling, partial curve].

`O=C(Nc1ccccc1)Nc1ccc2ccccc2n1`: the concentration at half-maximal activity (AC50) under setting [1] was 0.1 µM [rising, full curve, poor fit].

For the compound `Cc1ccc(/C=C2\SC(=S)N(CCCC(=O)NC3CCCC3)C2=O)cc1`, the half-maximal activity concentration (AC50) under setting [1] is 3.98 µM [falling, partial curve, poor fit].

`CCC(C)C(=O)N1CCc2cc(-c3csc(N)n3)ccc21` (stereo unspecified): the AC50 under setting [1] was 2.24 µM [rising, full curve].

Take `COc1cc(/C=C/c2ccc3c(Br)cc(Br)c(O)c3n2)ccc1O`: the concentration at half-maximal activity (AC50) under setting [1] was 35.5 µM [falling, single point] and the AC50 under setting [2] is 3.16 µM [falling, partial curve, poor fit].

In the case of `Cc1ccc(NC(=S)Nc2cc(-c3ccccc3)[nH]n2)cc1Cl`, the AC50 under setting [1] was 35.5 µM [falling, single point].

As for `CCn1cc(C(=O)OCc2cccc(Br)c2)c(=O)c2ccc(C)nc21`, the AC50 under setting [1] was 6.51 µM [falling, single point].

On to `O=C(Nc1nnc(C(F)(F)F)s1)c1ccc(Br)s1`, for which, under setting [1], the AC50 is 1.26 µM [falling, full curve, poor fit].

`COc1ccc(OC)c(-c2cc(C(=O)Nc3c(C)nn(Cc4ccccc4Cl)c3C)no2)c1`: the AC50 under setting [1] was 1.26 µM [rising, full curve, poor fit].

Take `COc1ccc(C(=O)C2CCCN(Cc3cccn3-c3ccc(Cl)cn3)C2)c(OC)c1` (stereo unspecified): the AC50 under setting [1] was 35.5 µM [falling, single point].

Regarding `CC(C)=NNc1nc2c(c(=O)n(C)c(=O)n2C)n1C`, the AC50 under setting [1] was 5.01 µM [falling, partial curve].

For `CC(=O)OCC1O[C@@H](O[C@@H]2C[C@H]3C(C)(C)[C@H](OC(C)=O)CC[C@]3(C)[C@H]3CC[C@]45C[C@]4(CC[C@H]5[C@@H](C)C[C@@H](O)[C@H](O)C(C)(C)O)[C@@]32C)[C@H](O)[C@@H](O)[C@@H]1O` (stereo partly specified), the AC50 was 14.6 µM [falling, partial curve] under setting [1] and 14.6 µM [rising, partial curve] under setting [2].

For `Cc1cccc(-c2nsc(SCC(=O)Nc3nccs3)n2)c1`, the AC50 under setting [1] is 0.708 µM [rising, full curve, poor fit].

On to `O=C(Nc1ccc(S(=O)(=O)Nc2ccc(F)cc2)cc1)c1ccc(CN2CCOCC2)cc1`, for which the AC50 under setting [1] was 1.58 µM [falling, single point].

As to `CCC(=O)Nc1nnc(SCc2cccc(F)c2)s1`, the AC50 under setting [1] was 1.78 µM [rising, full curve, poor fit].

Regarding `CC(=O)OC(C(=O)NC1CCCCC1)c1cccc(F)c1` (stereo unspecified), the AC50 under setting [1] was 0.1 µM [rising, full curve, poor fit].

Turning to `CSCc1c(C(=O)OCC(=O)c2ccc[nH]2)oc2ccccc12`, the AC50 under setting [1] is 1.64 µM [falling, full curve].

Turning to `Clc1cccc(/C=N\Nc2nccs2)c1`, the concentration at half-maximal activity (AC50) under setting [1] is 0.517 µM [rising, partial curve, poor fit].

For `CN(CC(=O)O/N=C(\N)c1ccccn1)S(=O)(=O)c1cc(Cl)ccc1Cl`, the AC50 is 2.82 µM [rising, partial curve, poor fit] under setting [1] and 2.51 µM [falling, full curve, poor fit] under setting [2].

For `CCOC(=O)C1=C(C)N=c2s/c(=C\c3ccncc3)c(=O)n2C1c1ccc2c(c1)OCO2` (stereo unspecified), the AC50 under setting [1] is 3.55 µM [falling, partial curve, poor fit].

Turning to `O=C(CS(=O)CC(=O)N(CC(=O)NC1CCCC1)C1CCCCC1)Nc1ccc(F)cc1` (stereo unspecified), the concentration at half-maximal activity (AC50) under setting [1] was 14.1 µM [falling, partial curve, poor fit].

As for `Cc1nn(-c2ccccc2)c(C)c1/C=C/C(=O)OCC(=O)NC1CCS(=O)(=O)C1` (stereo unspecified), the AC50 under setting [1] is 14.1 µM [rising, single point].

Consider `O=C(Nc1cccc(S(=O)(=O)Nc2ccc(Cl)cc2)c1)c1cc2c(s1)CCCC2`, for which the half-maximal activity concentration (AC50) under setting [1] was 29.1 µM [falling, single point].

`O=C(O)c1ccc(NC2=C(Cl)C(=O)c3ccccc3C2=O)cc1`: the AC50 is, setting by setting: under setting [1], 2 µM [falling, full curve]; under setting [2], 5.62 µM [rising, full curve, poor fit].

Turning to `CSc1cc(-c2ccc(Cl)cc2)c(C(=O)N2CCCC2)s1`, the AC50 under setting [1] was 3.26 µM [rising, single point].

Take `COc1ccc(Cc2noc(CN(C)Cc3ccc(-n4cccn4)cc3)n2)cc1OC`: the AC50 under setting [1] is 4.47 µM [rising, partial curve, poor fit].

On to `CC(=O)N/C(=C\c1ccccc1)C(=O)OCc1cccc(S(=O)(=O)N(C)C)c1`, for which the AC50 under setting [1] is 0.794 µM [falling, full curve, poor fit].

Turning to `CC1(C)CC(=O)C=C(NCCc2c[nH]c3ccccc23)C1`, under setting [1], the AC50 is 0.251 µM [rising, partial curve, poor fit].

For the compound `COc1cc(CNc2ccc(N3CCN(C(C)=O)CC3)cc2)ccc1OCc1ccc(F)cc1`, the AC50 under setting [1] was 35.5 µM [falling, single point].

`Cc1cccc(OCCNC(=O)c2ncn[nH]2)c1`: the AC50 under setting [1] was 29.1 µM [falling, single point].

Consider `CCCN(CCC)S(=O)(=O)c1ccc(C(=O)Nc2ccc(S(=O)(=O)Nc3nnc(CC)s3)cc2)cc1`, for which the AC50 under setting [1] is 22.4 µM [falling, single point].

For `O=C(NCc1ccc(Cl)cc1)C1CCC(CNc2c(N3CCCCC3)c(=O)c2=O)CC1` (stereo unspecified), the AC50 under setting [1] is 0.164 µM [rising, full curve, poor fit].

Consider `COc1ccc(Cc2noc(CN3CCN(C4CCc5ccccc5C4)CC3)n2)cc1OC` (stereo unspecified), for which, under setting [1], the AC50 is 35.5 µM [falling, single point].

With `COCCN1C(=O)N[C@@H](c2cccc(F)c2)C(C(=O)OC)=C1C`, the AC50 under setting [1] is 20 µM [rising, partial curve, poor fit].

`CCc1ccc(NC(=O)COn2nnc3ccc(S(=O)(=O)N(C)C)cc32)cc1`: the AC50 under setting [1] is 20.6 µM [falling, partial curve, poor fit].

Consider `O=c1[nH]c(SCc2ccc([N+](=O)[O-])cc2)nc2[nH]ncc12`, for which, under setting [1], the AC50 is 8.91 µM [rising, partial curve, poor fit].

Take `COc1cccc2sc3ccc(NCCC4CCCN4C)cc3c(=O)c12` (stereo unspecified): the concentration at half-maximal activity (AC50) under setting [1] was 6.31 µM [falling, partial curve].

Turning to `O=C(O)c1ccc(Nc2nc3ccc(Cl)cc3[nH]2)cc1`, the AC50 under setting [1] is 0.562 µM [falling, full curve].

As to `O=C(CCc1nc(-c2ccccc2)no1)NC1CCCCC1`, the half-maximal activity concentration (AC50) under setting [1] was 0.517 µM [rising, full curve, poor fit].

As to `O=C(CN1CC(=O)Oc2ccccc21)OCC(=O)c1cccc(Br)c1`, the half-maximal activity concentration (AC50) under setting [1] was 10 µM [falling, partial curve, poor fit].

As for `C/C(=N\NC(=O)c1ccccc1C)c1ccc(N2CCOCC2)cc1`, the AC50 under setting [1] is 14.6 µM [falling, partial curve].

With `O=C(CNC(=O)c1ccco1)OCc1ccc(C(=O)Oc2ccccc2)cc1`, the half-maximal activity concentration (AC50) under setting [1] was 29.1 µM [rising, single point].

As for `C=C(C)C1CC=C(C)/C(=N\NC(=O)CNc2ccccc2OC)C1` (stereo unspecified), the AC50 under setting [1] was 7.31 µM [falling, partial curve].

`COc1ccc2oc(C)c(C(=O)Cn3ccnc3)c2c1`: the AC50 under setting [1] was 2.59 µM [falling, full curve, poor fit].

For the compound `O=C(CSc1cccc[n+]1[O-])Nc1cc2c(cc1Cl)C(=O)c1ccccc1C2=O`, under setting [2], the AC50 was 29.1 µM [falling, single point].

Consider `O=C(O)c1ccc(-n2nnnc2SCc2ccccc2Br)cc1`, for which the AC50 under setting [1] was 20 µM [rising, partial curve, poor fit].

Turning to `NC(=O)[C@H]1CC2(CC(c3cccc(NC(=O)COc4ccc(Cl)cc4)c3)=NO2)CN1C(=O)C(c1ccccc1)c1ccccc1` (stereo partly specified), the AC50 under setting [1] was 5.01 µM [falling, full curve].

Regarding `Cc1cc(Sc2ncnc(N)c2[N+](=O)[O-])ncn1`, the concentration at half-maximal activity (AC50) runs as follows: under setting [1], 7.94 µM [falling, partial curve]; under setting [2], 35.5 µM [rising, single point].

As for `COc1ccc(N=C(C)c2sc3ccccc3c2O)cc1`, under setting [1], the concentration at half-maximal activity (AC50) was 2.51 µM [rising, full curve].

Consider `CC(C)NC(=O)CN1CCN(C(=O)c2ccc3oc(CCCc4ccccc4)nc3c2)CC1`, for which the half-maximal activity concentration (AC50) under setting [1] is 6.31 µM [falling, partial curve].

As for `COc1cc(C(=O)Nc2ccc3c(c2)nc(C)n3C)cc(OC)c1OC`, the AC50 under setting [2] is 35.5 µM [falling, single point].

For the compound `COc1ccc2[nH]c3c(N4CCc5ccccc5C4)ncnc3c2c1`, the AC50 under setting [1] was 12.6 µM [falling, partial curve].

`CCc1nn(CC(=O)N2CCC(C(N)=O)CC2)c(=O)c2cc3occc3n12`: the half-maximal activity concentration (AC50) under setting [1] is 28.2 µM [rising, single point].

For `CSCC[C@H](NC(=O)[C@@H]1Cc2ccccc2CN1)C(=O)NC1CCCCC1`, the AC50 under setting [1] is 8.91 µM [falling, partial curve, poor fit].

For `Cc1ccc(C)c(Nc2cc(C(=O)NCc3cccnc3)c3ccccc3n2)c1`, under setting [1], the AC50 was 35.5 µM [falling, single point].
